# Screening data, single-dose tests

Measurements from “University of Dundee, Small-Polar-MMV Screening Library” (2021), ChEMBL document CHEMBL3988442.

Mtb cholesterol medium: 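Phenotypic screen: M. tuberculosis growth, cholesterol and DPPC medium, 4 days; the read-out is not stated. Compounds at 50 µM. Direction is inferred from retests: higher values go with more growth inhibition. About 69,000 compounds were tested under these conditions; 0.54% (about 370) showed 50% or more at least once.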
Mtb glucose medium: 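Whole-cell growth test on Mycobacterium tuberculosis, read after 3 days in glucose-containing 7H9 medium; the read-out is not stated. Tested at 50 µM. The record gives no direction; compounds that gave an IC50 in retests scored well above the rest, so higher reads as more growth inhibition. About 69,000 compounds were tested under these conditions; 1.1% (about 760) showed 50% or more at least once.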

Each number is a percent effect as filed. The controls that fix the scale are not given in the record; negative values are as filed. The compounds are a random part of those screened. Two or more numbers in one place are separate tests of the same structure; such repeats can differ widely.

| Compound | Mtb cholesterol medium | Mtb glucose medium |
|---|---|---|
| `Cc1nc(C)n(C2CCCN(C(=O)c3cnc[nH]3)C2)n1` (configuration not stated) | 10.68 | 37.44 |
| `COC(=O)CCN1CCC(C(=O)c2cc(F)ccc2F)CC1` | 22.6 | -9.431 |
| `CC(C)n1ccnc1C1CCN(Cc2ccc(C(F)(F)F)c(F)c2)CC1` | -20.56 | 35.44 |
| `CC(C)n1nc2c(cc1=O)CN(Cc1nc3ccccc3o1)CC2` | -0.4639 | -2.119 |
| `Cl.Cl.[H][C@@]12CNC[C@]1([H])OCCN2Cc1c(C)noc1C` | -27.82 | -16.7 |
| `CNC(=O)C1CCN(C(=O)c2cccn2Cc2cccs2)CC1` | -19.35 | -4.416 |
| `Nc1nnc(SCc2cc(=O)n3c4c(sc3n2)CCCC4)[nH]1` | -6.13 | -7.047 |
| `Cc1nc2n(n1)CC(NCCCc1nc(-c3cccs3)no1)CC2` (configuration not stated) | 25.17 | 33.33 |
| `CCN1C(=O)CC[C@]12CC[C@@H](NC(=O)NCc1cccnc1)CC2.O=C(O)C(F)(F)F` | -2.664 | 1.606 |
| `Nc1nc2nc(C3CCCN(C(=O)c4cnccn4)C3)ccc2s1` (configuration not stated) | -6.468 | -4.826 |
| `O=C(O)C(F)(F)F.[H][C@@]12C[C@H](C(=O)NC)[C@@]([H])(CN(Cc3ccc(OC)cc3)C1)O2` | 11.39 | 22.33 |
| `O=C(CSc1ccc2c(c1)OCCO2)NS(=O)(=O)c1cccnc1` | -13.16 | -1.162 |
| `O=C(Cn1ncc2ccccc21)Nc1ccnn1CC1CCOC1` (configuration not stated) | 4.667 | -43.23 |
| `Cc1ccc2oc([C@H]3CCN(Cc4ccccc4)C3)nc2c1` | 0.6313 | 0.9663 and 11.03 |
| `Cc1ccoc1-c1nnc(CN2CCOC(Cn3cccn3)C2)o1` (configuration not stated) | -15.03 | -28.93 |
| `[H][C@]12CN(Cc3cccc(OC)c3F)C[C@]1([H])N(CCOC)C(=O)CO2` | 0.09684 | -7.746 |
| `CCC(=O)N1CCCC1C(=O)N1CCC(Cc2ccc(F)cc2)CC1` (configuration not stated) | -22.38 | -11.26 |
| `CN(CCNC(=O)Nc1ccn(C)n1)Cc1ccc(F)cc1` | 17.34 | -7.244 |
| `CCCNC(=O)c1ccc(S(=O)(=O)NCC2(O)CCCNC2)cc1` (configuration not stated) | -8.78 | -3.777 |
| `CO[C@H]1CNC[C@@H]1NC(=O)c1cc(C)nc2c(C)cc(C)cc12` | 14.88 | 39.92 |
| `CC(C)NS(=O)(=O)c1cc(C(=O)O)cc(-c2ccc3c(c2)OCO3)c1` | 12.74 and 9.215 | 26.44 |
| `Cc1ccc(S(=O)(=O)N2CC[C@@H](O)C2)c(F)c1` | -10.32 | 14.98 |
| `CN1CSC[C@H]1C(=O)N1CCN(Cc2cccc(F)c2)CC1` | -26.37 | -36.8 |
| `CC(CN1CCCC1)C(=O)NCC1CCN(c2cnn(C)c(=O)c2)CC1` (configuration not stated) | 6.516 and -7.64 | 4.355 |
| `CN(Cc1ccncc1)C(=O)[C@H]1CSCN1C(=O)OC(C)(C)C` | -0.8589 | -16.23 |
| `O=C(O)C(=O)O.c1coc(CN2CCC(c3ccc4c(c3)OCO4)CC2)c1` | 11.89 and -2.208 | 21.74 |
| `CCN(C)S(=O)(=O)NCC1(c2ccccc2Br)CC1` | -14.38 | 26.1 |
| `Cn1ccc(C(=O)N2CCCC(c3cc(O)n(C)n3)C2)n1` (configuration not stated) | -9.143 | 3.651 |
| `CC1CCCN(C(=O)CCc2cccnc2)C1` (configuration not stated) | -5.993 | -2.089 |
| `CCN(C)S(=O)(=O)N[C@H]1CN(c2ccc(F)cn2)C[C@@H]1C(C)C` | 13.12 | 20.78 and 5.233 |
| `Cc1cccc(CN2CC3(CCN(C(=O)C4CC4)CC3)OCC2=O)n1` | 23.84 | 14.18 |
| `CCc1ccsc1C(=O)N1CCN(CC(C)O)CC1` (configuration not stated) | 3.993 | -13.41 |
| `CN(Cc1noc(C(C)(C)C)n1)Cc1ccccc1N1CCCCC1` | 20.27 | 0.7983 |
| `O=C(C1CCOc2ccccc21)N1CCOc2ccc(F)cc21` (configuration not stated) | -15.55 | 1.963 |
| `Cc1sc(NS(=O)(=O)c2ccccc2)nc1C(=O)NC1CC1` | 9.319 | -17.17 and -2.105 |
| `CC(=O)N1CCN(c2ccccc2CNc2ccc3[nH]ncc3c2)CC1` | -12.84 | -1.428 |
| `O=C1N(c2cccc(Cl)c2)Cc2nc(=O)[nH]n21` | -4.872 and 11.41 | 14.89 |
| `CN1C(=O)CC(c2ccccc2)C12CCN(CCO)CC2.O=C(O)C(F)(F)F` (configuration not stated) | -2.372 | -4.149 |
| `CCOC1CCCN(C(=O)c2cnc3c(cnn3C3CCCC3)c2)C1` (configuration not stated) | -1.615 | 6.173 |
| `CC(SCCC(=O)NC(N)=O)c1ccccc1F` (configuration not stated) | -9.417 | 1.658 and 7.635 |
| `Cc1cc(NC(=O)NC(C)CN2CCN(c3ccccc3)CC2)on1` (configuration not stated) | 8.785 | 9.754 and 0.09723 |
| `COc1ccc2[nH]c(CNc3cc(C4CCNCC4)nc(C)n3)cc2c1` | 40.24 | 48.13 and 44.02 |
| `COc1cc2nc(C)n(CC(=O)NCCC(C)C)c(=O)c2cc1OC` | -25.63 | -25.31 |
| `CN1CC(=O)N(c2ccsc2)CC12CCN(C(=O)CC1CCCC1)C2.O=C(O)C(F)(F)F` (configuration not stated) | -3.479 | 5.591 |
| `O=C(COC1CCCCC1)N1CCCC(n2ccnc2)C1` (configuration not stated) | -7.529 | -6.893 |
| `O=C(O)C(F)(F)F.[H][C@@]12OCCN(C(=O)c3ccoc3C)[C@@]1([H])CC[C@@H]2Oc1ccccn1` | 5.693 | 3.941 |
| `CCn1ncc(CN2CCc3c(nc(-c4cccnc4)[nH]c3=O)C2)c1C` | -20.7 | 3.761 |
| `Clc1cccc(Cl)c1-c1nnc(CNCCn2cccn2)o1` | -13.78 | 7.998 |
| `Cc1nc(N)cc(C2CCN2CCOc2ccccc2)n1` (configuration not stated) | 10.43 | 22.62 |
| `Cn1ccc(CN2CCC(NC(=O)Cc3ccccc3)CC2)cc1=O` | 1.802 | 19.31 |
| `CC(C)N1CCC(C(=O)N(C)C(C)c2ccon2)CC1` (configuration not stated) | -12.96 | -4.793 |
| `CN(C)c1ncccc1CNS(=O)(=O)c1cc(F)cc(F)c1` | -7.497 | 5.069 |
| `O=C(O)C(F)(F)F.O=C(O)C(F)(F)F.[H][C@@]12CN(CCN3CCCC3)CC[C@]1([H])CN(c1cnccn1)C2` | 0.6668 | 11.6 |
| `O=C(O)C(F)(F)F.[H][C@@]12CCN(CCc3ccccc3)[C@]1([H])CC[C@@H](C(=O)NC1CCC1)O2` | -12.23 | -0.1932 |
| `O=C(Cc1ccc(Cl)cc1)N1CCC(O)(C(F)(F)F)C1` (configuration not stated) | 14.92 | 12.79 |
| `CN(C)CCOCc1ncn2c1CN(c1ncc(F)cn1)CCC2.O=C(O)C(F)(F)F` | -3.533 | 13.02 |
| `N#Cc1ccccc1CN1CCCC(c2nccn2CC2CC2)C1` (configuration not stated) | -26.16 | -5.135 and -22.67 |
| `O=C(O)C(F)(F)F.[H][C@]12CC[C@@]3(N=C(C)N(CC(C)C)C3=O)[C@@]1([H])CN(CC(C)C)C2` | -20.14 | -1.669 |
| `Clc1snnc1CN1CCCC(Cn2cncn2)C1` (configuration not stated) | -1.935 | 7.278 |
| `O=C([C@@H]1CCCO1)N1CCN(Cc2ccncc2)c2ncccc2C1` | 10.35 | 5.602 |
| `Cn1cc(CNCCn2cccn2)c(-c2cccnc2)n1` | 4.08 | 20 |
| `COCCc1noc(Cn2c(=O)[nH]c3ccccc32)n1` | 7.597 | 21.22 |
| `N#Cc1cn(C2CC2)c(=O)n(CC(O)c2ccc(F)cc2)c1=O` (configuration not stated) | -3.008 | 3.655 |
| `CC1COCCN1Cc1nc(-c2ccsc2)no1` (configuration not stated) | 15.18 | 3.92 and 6.609 |
| `CC(C)OCCCN(Cc1ccncc1)Cc1cc(F)cc(F)c1.Cl` | -35.38 | -1.152 |
| `Cc1ccc(C(=O)N2CCCN(Cc3cscn3)CC2)o1` | 3.492 | 7.589 |
| `CC(=O)N(C)CC(=O)NC1(c2ccc(Cl)c(Cl)c2)CC1` | 10.99 | 12.12 and 12.75 |
| `COCc1nn(C(C)C)c2c1CCN(Cc1ccc(C)s1)C2.O=C(O)C(F)(F)F` | -13.45 | 12.48 |
| `CSCC(=O)N1CCCN(c2ccncc2C)CC1` | -11.27 and -12.16 | -21.52 |
| `CCOC(=O)N(C)C1CCN(Cc2cnc3ccccn23)CC1` | -6.549 | -7.693 |
| `CC1CN(c2ncnc3ccccc23)CCO1` (configuration not stated) | -10.86 | 14.47 and 0.4995 |
| `CCN(CC(=O)NC)C(=O)c1cc(-c2cccc(Cl)c2)no1` | -12.55 | -2.174 and 5.451 |
| `Cc1ccc(C2CSCCN2C(=O)c2ccsc2)o1` (configuration not stated) | -3.769 | 16.93 |
| `CSCC[C@H](NC(C)=O)c1nc(CC(C)C)n[nH]1` | -5 and -10.57 | -10.71 |
| `Cc1n[nH]c(C2CN(C(=O)CCCn3cccn3)CCO2)n1` (configuration not stated) | -30.75 | -9.266 |
| `CS(=O)(=O)c1cccc(S(=O)(=O)NC(=O)CC2CCCCC2)c1` | -1.494 | -30.02 |
| `O=C(NC1CC1)c1cn(C2CCN(c3cc(C4CC4)ncn3)CC2)nn1` | 33.54 | 23.69 |
| `Nc1cc2c(nn1)CCN(C(=O)CCC1CCCCC1)C2` | 4.895 | -20.7 |
| `O=C(CN1CC(c2nc(-c3cccs3)no2)C1)NCC1CCCO1.O=C(O)C(=O)O` (configuration not stated) | 18.51 | 9.358 and 31.63 |

The last 5 entries again:

Compound,Mtb cholesterol medium,Mtb glucose medium
Cc1n[nH]c(C2CN(C(=O)CCCn3cccn3)CCO2)n1 (configuration not stated),-30.75,-9.266
CS(=O)(=O)c1cccc(S(=O)(=O)NC(=O)CC2CCCCC2)c1,-1.494,-30.02
O=C(NC1CC1)c1cn(C2CCN(c3cc(C4CC4)ncn3)CC2)nn1,33.54,23.69
Nc1cc2c(nn1)CCN(C(=O)CCC1CCCCC1)C2,4.895,-20.7
O=C(CN1CC(c2nc(-c3cccs3)no2)C1)NCC1CCCO1.O=C(O)C(=O)O (configuration not stated),18.51,9.358 and 31.63